Measurements from PMC6393609.
Results are given in words; binding and its absence hold for the method and conditions named. In cells and extracts the contact can be indirect. Some results given as binding are weak or reduced against the parent protein; the word gives no strength.

Protein sequences, listed by entry. Tags and fused reporters are not part of them. Lines headed by an entry give the natural chain unless they say otherwise; changes in a name come on top. Residues count along the entry.
UniProt Q93034: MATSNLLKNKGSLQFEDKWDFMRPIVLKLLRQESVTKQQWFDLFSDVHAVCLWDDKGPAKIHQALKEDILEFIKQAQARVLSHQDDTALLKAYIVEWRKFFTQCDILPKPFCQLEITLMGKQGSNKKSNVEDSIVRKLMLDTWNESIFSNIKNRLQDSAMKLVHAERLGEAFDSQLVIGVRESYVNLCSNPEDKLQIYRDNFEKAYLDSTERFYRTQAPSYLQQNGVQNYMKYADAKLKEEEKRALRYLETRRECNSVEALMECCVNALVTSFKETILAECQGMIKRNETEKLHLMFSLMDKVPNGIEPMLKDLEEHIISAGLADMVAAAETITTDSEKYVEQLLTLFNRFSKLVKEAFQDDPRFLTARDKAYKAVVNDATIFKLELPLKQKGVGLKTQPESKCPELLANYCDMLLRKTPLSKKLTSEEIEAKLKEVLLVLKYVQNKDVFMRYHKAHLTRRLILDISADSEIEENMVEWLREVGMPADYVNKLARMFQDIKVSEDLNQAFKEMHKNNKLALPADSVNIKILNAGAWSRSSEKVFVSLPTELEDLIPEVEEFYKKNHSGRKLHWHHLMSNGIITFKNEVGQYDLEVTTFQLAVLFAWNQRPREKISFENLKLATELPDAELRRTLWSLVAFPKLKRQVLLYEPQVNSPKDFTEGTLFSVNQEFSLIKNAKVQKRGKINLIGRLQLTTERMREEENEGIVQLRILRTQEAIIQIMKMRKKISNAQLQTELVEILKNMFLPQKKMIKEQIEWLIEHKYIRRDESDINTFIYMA
UniProt Q96GG9: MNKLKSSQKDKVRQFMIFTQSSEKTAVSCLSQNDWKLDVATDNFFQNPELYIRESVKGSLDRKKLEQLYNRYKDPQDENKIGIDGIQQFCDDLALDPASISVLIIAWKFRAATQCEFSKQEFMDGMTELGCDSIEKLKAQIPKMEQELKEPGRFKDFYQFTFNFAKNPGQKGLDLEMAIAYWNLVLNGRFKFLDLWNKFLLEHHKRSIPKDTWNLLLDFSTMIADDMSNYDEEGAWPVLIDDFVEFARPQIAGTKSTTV
HA–DCNL1 (PONY): residues 59-259 of Q96GG9
UniProt Q9UNS2: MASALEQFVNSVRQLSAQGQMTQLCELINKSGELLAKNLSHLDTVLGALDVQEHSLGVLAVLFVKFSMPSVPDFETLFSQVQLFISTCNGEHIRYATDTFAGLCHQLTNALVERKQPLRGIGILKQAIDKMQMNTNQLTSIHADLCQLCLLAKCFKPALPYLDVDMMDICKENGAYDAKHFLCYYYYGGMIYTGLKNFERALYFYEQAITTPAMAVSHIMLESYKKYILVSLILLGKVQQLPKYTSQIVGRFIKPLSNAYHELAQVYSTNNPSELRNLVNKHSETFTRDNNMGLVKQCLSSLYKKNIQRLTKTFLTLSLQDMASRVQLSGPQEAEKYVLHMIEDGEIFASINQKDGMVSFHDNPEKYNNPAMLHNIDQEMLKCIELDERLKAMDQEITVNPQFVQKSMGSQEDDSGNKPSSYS
UniProt Q99627: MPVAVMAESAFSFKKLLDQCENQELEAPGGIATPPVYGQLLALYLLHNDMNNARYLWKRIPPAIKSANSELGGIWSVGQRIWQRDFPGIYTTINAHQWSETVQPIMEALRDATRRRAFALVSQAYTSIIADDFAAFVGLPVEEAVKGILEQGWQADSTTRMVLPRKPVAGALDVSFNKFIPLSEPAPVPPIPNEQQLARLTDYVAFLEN
UniProt Q92905: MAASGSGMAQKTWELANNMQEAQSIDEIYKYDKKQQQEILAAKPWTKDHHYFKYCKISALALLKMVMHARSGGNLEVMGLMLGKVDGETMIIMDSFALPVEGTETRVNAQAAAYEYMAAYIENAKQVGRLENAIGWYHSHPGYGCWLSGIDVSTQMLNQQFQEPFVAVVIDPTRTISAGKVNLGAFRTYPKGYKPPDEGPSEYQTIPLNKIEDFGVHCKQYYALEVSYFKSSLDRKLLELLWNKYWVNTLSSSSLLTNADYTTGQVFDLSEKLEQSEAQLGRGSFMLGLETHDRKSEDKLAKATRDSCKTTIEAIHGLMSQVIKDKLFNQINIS
UniProt Q13620: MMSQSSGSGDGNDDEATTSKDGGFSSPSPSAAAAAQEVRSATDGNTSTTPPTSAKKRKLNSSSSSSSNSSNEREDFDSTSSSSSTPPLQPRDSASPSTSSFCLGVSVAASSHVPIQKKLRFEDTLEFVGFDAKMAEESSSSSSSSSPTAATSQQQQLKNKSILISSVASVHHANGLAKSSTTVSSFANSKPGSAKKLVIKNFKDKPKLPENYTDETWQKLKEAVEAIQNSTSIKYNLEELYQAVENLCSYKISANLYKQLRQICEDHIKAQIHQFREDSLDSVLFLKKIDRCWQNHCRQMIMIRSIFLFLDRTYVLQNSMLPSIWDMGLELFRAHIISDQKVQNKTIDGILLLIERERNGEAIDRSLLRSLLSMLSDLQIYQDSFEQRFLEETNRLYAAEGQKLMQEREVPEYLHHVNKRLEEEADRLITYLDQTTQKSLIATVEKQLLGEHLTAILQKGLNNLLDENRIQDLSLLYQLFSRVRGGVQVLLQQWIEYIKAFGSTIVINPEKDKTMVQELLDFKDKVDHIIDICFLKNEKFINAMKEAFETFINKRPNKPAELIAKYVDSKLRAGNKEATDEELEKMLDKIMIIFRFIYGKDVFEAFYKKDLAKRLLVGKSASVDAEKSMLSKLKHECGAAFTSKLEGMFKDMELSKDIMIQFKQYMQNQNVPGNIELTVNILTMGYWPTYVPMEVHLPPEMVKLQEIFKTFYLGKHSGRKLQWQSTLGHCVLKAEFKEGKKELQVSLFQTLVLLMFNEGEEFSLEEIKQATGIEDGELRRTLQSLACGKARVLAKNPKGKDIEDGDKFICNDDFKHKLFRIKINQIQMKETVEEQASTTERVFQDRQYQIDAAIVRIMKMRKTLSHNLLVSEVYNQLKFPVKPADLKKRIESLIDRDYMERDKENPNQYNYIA
UniProt Q13619: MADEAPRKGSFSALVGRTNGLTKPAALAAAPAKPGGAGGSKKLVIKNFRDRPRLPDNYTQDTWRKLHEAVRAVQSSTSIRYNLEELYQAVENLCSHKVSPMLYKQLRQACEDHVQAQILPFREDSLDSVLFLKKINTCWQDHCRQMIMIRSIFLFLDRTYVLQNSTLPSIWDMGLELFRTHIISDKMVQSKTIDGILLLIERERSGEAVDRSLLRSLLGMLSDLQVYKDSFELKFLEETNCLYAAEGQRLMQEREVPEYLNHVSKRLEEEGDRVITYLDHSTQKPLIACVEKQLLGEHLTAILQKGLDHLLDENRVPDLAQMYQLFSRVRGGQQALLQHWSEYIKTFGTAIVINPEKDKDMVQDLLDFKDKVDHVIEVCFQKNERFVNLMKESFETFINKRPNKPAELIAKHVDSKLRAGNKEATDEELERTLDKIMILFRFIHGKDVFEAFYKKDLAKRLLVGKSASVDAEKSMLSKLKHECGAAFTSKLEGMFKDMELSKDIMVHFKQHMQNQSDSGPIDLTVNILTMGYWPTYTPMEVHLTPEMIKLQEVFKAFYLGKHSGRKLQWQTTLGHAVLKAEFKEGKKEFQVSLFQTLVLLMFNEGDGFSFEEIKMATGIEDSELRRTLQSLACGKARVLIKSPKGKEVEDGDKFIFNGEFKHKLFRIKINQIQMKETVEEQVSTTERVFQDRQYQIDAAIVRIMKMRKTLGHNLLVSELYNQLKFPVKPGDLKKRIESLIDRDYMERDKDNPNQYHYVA
UniProt Q9H9Q2: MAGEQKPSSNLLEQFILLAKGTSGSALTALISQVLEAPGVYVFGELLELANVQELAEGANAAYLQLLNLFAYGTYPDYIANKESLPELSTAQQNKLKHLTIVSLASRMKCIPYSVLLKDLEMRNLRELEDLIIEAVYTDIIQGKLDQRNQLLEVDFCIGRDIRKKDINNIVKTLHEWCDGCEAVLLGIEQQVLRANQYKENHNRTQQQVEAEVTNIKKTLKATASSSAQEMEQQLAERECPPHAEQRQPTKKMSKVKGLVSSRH

Legend:
[1] = target: CUL5 (human (endogenous in HEK293)) (UniProt Q93034); experiment: co-IP; immunoprecipitation of endogenous CUL5 complexes from HEK293 cells stably expressing GFP-control, GFP-TRIAD1 or catalytically inactive GFP-TRIAD1 (C310S); co-precipitated proteins detected by immunoblot; nonspecific IgG as negative control
[2] = target: HA–DCNL1 (human) (UniProt Q96GG9); experiment: co-IP; anti-HA immunoprecipitation from lysates of HEK293 cells stably expressing mock, HA-DCNL1, HA-DCNL1 (PONY) or HA-DCNL1-Ub^CT; co-precipitated endogenous proteins by immunoblot
[3] = target: HA–DCNL1 (PONY) (human) (UniProt Q96GG9); experiment: as above

Substance	binding [1]	binding [2]	binding [3]
endogenous DCNL1 (from UniProt Q96GG9 1-259)	binds	–	–
CUL5 (from UniProt Q93034 1-780)	–	binds	binds
CSN3 (from UniProt Q9UNS2 1-423)	–	binds	binds
CSN8 (from UniProt Q99627 1-209)	binds	binds	binds
CSN5 (from UniProt Q92905 1-334)	binds	–	–

Second part, the substance after the results:

binding [1]	binding [2]	binding [3]	Substance
–	binds	binds	CUL4B (from UniProt Q13620 1-913)
–	binds	binds	CUL4A (from UniProt Q13619 1-759)
–	binds	binds	CSN7B (from UniProt Q9H9Q2 1-264)
